The other results are listed elsewhere or left out. Rule as the data show it: active = 150% or more and inactive = the rest. Single values are uncertain, as repeats are few or missing.

This test concerns Staphylococcus aureus JE2-lux inside RAW 264.7 macrophages. The test can be described thus: intracellular bacterial bioluminescence relative to DMSO vehicle; higher = higher intracellular bacterial metabolic activity. The conditions noted are these: 10 µM; treatment time 4 h; gentamicin 50 µg/ml.
Turning to `COc1ccc(-c2cc(C(F)(F)F)c(C#N)c(SCCC(=O)O)n2)cc1`, the intracellular bacterial bioluminescence was inactive: 73.6%.
For `CC1CCc2nc(Nc3nc4ccc(F)cc4s3)sc2C1` (stereo not drawn) the value was inactive: 122%; for `CCCCSc1nc2c(c(=O)[nH]1)C(c1ccc(OC)cc1)C1=C(CCCC1=O)N2` (stereo not drawn), inactive: 105%.
With `O=C(NCc1ccccn1)c1cc2c(ccc3ccccc32)oc1=O` the figure was inactive: 93.1%.
With `C=CCc1c(C)nc(-c2ccccc2)nc1Nc1ccc(C(=O)O)cc1` the figure was inactive: 117%; with `NC(=O)C1Cc2ccccc2N1C(=O)c1ccc(S(=O)(=O)N2CCCC2)cc1` (stereo not drawn), inactive: 112%.
Turning to `CCOC(=O)C(C)NC(=O)Nc1c(-c2cccnc2)[nH]c2ccc(Cl)cc12` (stereo not drawn), the intracellular bacterial bioluminescence was inactive: 102%.
For `COc1ccc(C(=O)NN2C(=O)c3ccccc3C2=O)cc1` the value was inactive: 88.6%.
With `COc1cccc(NC(=O)CSc2nc(-c3ccccc3)no2)c1` the figure was inactive: 112%.
For `COc1cc2c(cc1OC)C(c1cc3cc(C)ccc3[nH]c1=O)N(C(=O)Nc1ccccc1)CC2` (stereo not drawn) the value was active: 163%; for `COc1ccc(C2C3=C(CCCC3=O)Nc3[nH]c(=O)[nH]c(=O)c32)cc1` (stereo not drawn), inactive: 111%.
Consider `CCOc1ccc(-n2c(C)c(C)n3c4c(=O)[nH]c(=O)n(C)c4nc23)cc1`, for which the intracellular bacterial bioluminescence is inactive: 120%.
For `CC(=O)Nc1ccc2nc(Nc3nc4ccc(F)cc4s3)sc2c1` the value was inactive: 95%; for `O=C(Nc1ccccc1Br)c1csc2c1CCCC2`, inactive: 61.3%.
With `Cc1ccc(-n2nc3ccc(NC(=O)C(C)NS(=O)(=O)c4ccc(C)cc4)cc3n2)cc1` (stereo not drawn) the figure was inactive: 126%.
For `COC(=O)c1ccccc1NC(=O)Nc1c(-c2ccncc2)[nH]c2c(Cl)cccc12` the value was inactive: 122%; for `NC(=O)c1cc2ccccc2o/c1=N\c1ccc(Cl)cc1Cl`, inactive: 116%.
Regarding `O=C(Cn1cnc2ccccc21)Nc1ccccc1`, the intracellular bacterial bioluminescence is inactive: 90.7%.
With `CCCCNC(=O)CSc1nc(-c2ccc(C(C)C)cc2)no1` the figure was inactive: 51%; with `COc1cccc(NC(=O)Cn2c(=O)cc(C)c3c(C)nn(-c4ccccc4)c32)c1`, inactive: 112%; with `CC(=O)NC(=O)c1cc2cc(Br)ccc2o/c1=N\c1ccc(F)cc1`, inactive: 106%.
With `Cc1ccnc(NS(=O)(=O)c2ccc(NC(=O)c3cc(-c4cccs4)on3)cc2)n1` the figure was inactive: 113%.
For `Cc1c(C)n2c(SCC(=O)NCC3CCCO3)nnc2[nH]c1=O` (stereo not drawn) the value was inactive: 109%.
With `O=C(N/N=C/c1ccco1)c1cc(Br)ccc1O`, the intracellular bacterial bioluminescence is inactive: 117%.
Regarding `Cc1ccc(NC(=O)Cn2cc(S(=O)(=O)c3ccccc3)c(=O)c3cc(C)ccc32)c(C)c1`, the intracellular bacterial bioluminescence was inactive: 98.8%.
As for `CN(CCCC(=O)Nc1nccs1)S(=O)(=O)c1ccc(Cl)cc1`, the intracellular bacterial bioluminescence was inactive: 92.2%.
With `NC(=O)c1cc2c(ccc3ccccc32)o/c1=N\c1cc(F)ccc1F` the figure was inactive: 84.4%; with `CC(C)(C)c1cc(O)c2oc(=O)c(S(=O)(=O)c3ccc(F)cc3)cc2c1`, inactive: 101%; with `COc1ccc(-c2n[nH]c3nc(-c4ccc(F)cc4)cc(C(=O)NC(C)c4ccccc4)c23)cc1` (stereo not drawn), active: 153%.
With `O=C(Nc1c2c(nn1-c1ccc(Cl)cc1)CS(=O)(=O)C2)c1ccc(Cl)cc1Cl` the figure was inactive: 63.1%.
With `COc1ccc2c(c1)cc(C)c1nn(CC(=O)Nc3cccc(C(C)=O)c3)c(=O)n12` the figure was inactive: 31.8%.
As for `Cc1ccc(NS(=O)(=O)c2ccc3c(c2)C(=O)c2ccccc2C3=O)c(C)c1`, the intracellular bacterial bioluminescence is inactive: 103%.
For `O=C(Nc1ccc(NC(=O)c2cccc3nccnc23)cc1)c1ccccn1` the value was inactive: 78.8%.
For the molecule `CC(C)(C)C1CCc2c(sc3nc(CN4CCN(C(=O)c5ccco5)CC4)[nH]c(=O)c23)C1` (stereo not drawn), the intracellular bacterial bioluminescence is inactive: 86.8%.
With `Cc1ccc(-c2noc3c(=O)n(CCC(=O)Nc4nc5ccc(C)cc5s4)cnc23)cc1` the figure was inactive: 42.4%.
With `Cc1ccccc1C(NC(=O)c1[nH]c2ccccc2c1C)c1ccncc1` (stereo not drawn) the figure was inactive: 105%.
As to `Cc1cc2c(o1)CCc1sc(N(C)C(=O)Cc3ccccc3F)nc1-2`, the intracellular bacterial bioluminescence is inactive: 83.5%.
With `Cc1ccccc1C(=O)n1nc(-c2ccccc2)nc1N` the figure was inactive: 92%; with `Cc1nc(-c2cccc(NS(=O)(=O)c3ccc4ccccc4c3)c2)cs1`, inactive: 114%.
For `Cc1cccc(C(=O)Nc2cnc(N3CCN(c4ncnc5ccccc45)CC3)c(C(=O)O)c2)c1` the value was inactive: 87.7%; for `Cc1ccc(-c2csc(NC(=O)CSc3nncc(=O)[nH]3)n2)cc1`, inactive: 92%; for `Cc1n[nH]c(C)c1S(=O)(=O)NCCOc1ccc(-c2cccs2)nn1`, inactive: 109%.
On to `O=C(c1ccccc1)c1c2c3c(ccc(S(=O)(=O)O)c3[nH]c1=O)C(=O)c1ccccc1-2`, for which the intracellular bacterial bioluminescence is inactive: 116%.
`O=C(Nc1nc2ccc3ccccc3c2s1)c1coc2ccccc2c1=O`: the intracellular bacterial bioluminescence was inactive: 107%.
With `Clc1ccc2[nH]c3nc(SCc4nnc(-c5ccccc5)o4)nnc3c2c1` the figure was inactive: 100%.
For `C=CCOc1ccccc1NC(=O)c1[nH]nc2c1CCCCC2` the value was inactive: 105%; for `O=C(CCCc1ccccc1)Nc1c(C(=O)Nc2ccc3c(c2)OCCO3)oc2ccccc12`, inactive: 106%.
With `CCOc1cccc(-c2cc(C(=O)N/N=C/c3ccccn3)[nH]n2)c1` the figure was inactive: 100%.
With `COc1ccc(CCn2nc(-c3cccnc3)oc2=O)cc1`, the intracellular bacterial bioluminescence is inactive: 57%.
For `Cc1ccccc1OCC(=O)Nc1c(C(=O)Nc2ccc([N+](=O)[O-])cc2)oc2ccccc12` the value was inactive: 103%; for `Cc1ccc(Cn2c(=O)c3nc(C(=O)NCc4ccco4)nn3c3ccc(C)cc32)cc1`, inactive: 39.1%; for `Cc1ccc(S(=O)(=O)Nc2ccc(O)c3ncccc23)cc1`, inactive: 94%.
On to `COc1ccc(CCNC(=O)c2cc(-c3ccc(F)cc3)nc3[nH]nc(-c4ccccc4)c23)cc1OC`, for which the intracellular bacterial bioluminescence is inactive: 88.5%.
With `COc1ccc(CCNc2ncnc(N)c2[N+](=O)[O-])cc1OC` the figure was inactive: 73.8%; with `CSc1cccc(NC(=O)Cn2cccc2-c2nc(-c3ccccc3)cs2)c1`, inactive: 80.1%; with `Cc1ccc(CCC(=O)Nc2ccc(Cl)c([N+](=O)[O-])c2)o1`, inactive: 42.2%.
For `O=C(CSc1nnc2n(Cc3ccccc3F)c3ccccc3n12)NC1CCCCC1` the value was inactive: 60.2%; for `CCOC(=O)c1cc(C)nc2c1c(=O)n(Cc1nc(-c3ccc(Cl)cc3)oc1C)c(=O)n2C`, inactive: 102%.

The values above are taken from the supplement of paper PMC12578635.
